Assay results taken from US8580579B2, “Hydrophilic and lipophilic rhodamines for labelling and imaging” (Max-Planck-Gesellschaft zur Foerderung der Wissenschaften …, priority 2009, dated 2013).
“Also recorded” adds a separate entry of the source.

Assays:
[1] = Microinjection tests with glass capillaries; conditions: 0.5 μM solution in water or PBS
Description: The commercial dye Atto 647N is preferred in many fluorescence microscopy studies, especially when high excitation powers are used. […] For live cell studies, it is desirable to introduce aqueous solutions of the dye (e.g. coupled to antibodies) via microinjection into cells. […] These tests were performed with a ˜0.5 μM solution of Atto 647N in water or PBS, filled into microinjection pipettes (Femtotips®, Eppendorf, Hamburg, Germany and home made capillaries). The capillaries got blocked by the dye and no fluid could be injected, even under the maximally available pressure of ˜4000 hPa. The walls, but not the interior of the capillaries brighten up when irradiated. On the other hand, if 50% (v/v) ethanol is used as solvent, a 0.5 μM solution is injectable, but this solvent system is not compatible with live cells.
Thereafter, the suitability of the dye 6 for microinjection was tested under the same conditions: A 0.5 μM solution of the dye in water was filled into the capillary tubes (Femtotips®). Neither the walls of the capillaries lit up noticeably upon fluorescence excitation, nor were the capillaries blocked: upon application of a normal injection pressure (˜90 hPa), the flow was not impeded.

[2] = tested on: formaldehyde-fixed Ptk2 cells; assay: Immunostaining of the TOM complex, confocal and STED imaging; type: cell-based; conditions: for background in immunostaining (unspecific binding): antibody conjugates
Excerpt: To evaluate the performance of the new dyes in optical microscopy, the mitochondrial entry gate—the TOM complex—was stained in formaldehyde-fixed Ptk2 cells with a Tom20 specific primary antibody (Santa Cruz Biotechnology, Santa Cruz, Calif., USA). A fluorescent antibody labelled with the compound 6 was applied as a secondary marker (FIG. 3, lower panels). For comparison, the same secondary antibodies were labelled with Atto 647N fluorophore and used for imaging of the TOM complex (FIG. 3, upper panels). Imaging was performed with the STED microscope described recently [B. Harke, J. Keller, C. K. Ullal, V. Westphal, A. Schönle, S. W. Hell, Opt. Expr. 2008, 16, 4154-4162].

[3] = tested on: fixed human cells (cell line U373); assay: Bleaching resistance and fluorescence depletion, β-tubulin staining; type: cell-based; conditions: for bleaching resistance, 6 compared with 6D: 635 nm excitation and STED conditions, coupled to sheep-anti-mouse antibodies; for depletion efficiency (STED efficiency) as function of depletion beam power: excitation power 2.7 μW
Description: The bleaching resistances of the compounds 6 and 6D were compared in fixed human cells (cell line U373). The NHS esters of both dyes were coupled to sheep-anti-mouse antibodies (Dianova, Hamburg, Germany) and used to stain β-tubulin via anti-β-tubulin antibodies from mouse (Sigma, Munich, Germany). Up to 100 frames were imaged from the same region and the bleaching stability was determined by exponential fits to the fluorescence intensity in selected regions of interest.
The depletion of the fluorescence as a function of the depletion beam intensity was measured for the dyes 6 and 6D in the same samples of U373 cells (FIG. 2). Excitation power was 2.7 μW.

biological membranes = assay: Integration of dyes into biological membranes
Excerpt: With respect to biological labelling, this is the most important advantage of these dyes over the lipophilic fluorescent stains with similar spectral properties (e.g. Atto 647N).

[4] = tested on: mammalian cells (cell line U2OS); assay: Bleaching resistance of antibody-coupled dyes, Tom20 staining; type: cell-based
Excerpt: The bleaching resistance of rhodamine 6 and the commercial dye Atto647N were compared in (fixed) biological samples. Both dyes (as NHS esters) were coupled to goat-anti-rabbit antibodies (Dianova, Hamburg, Germany), and these were used for staining the mitochondrial protein Tom20 in mammalian cells (cell line U2OS). A Tom20 specific antibody (from rabbit) (Santa Cruz Biotechnology, Heidelberg, Germany) was used as a primary label. From 50 up to 100 frames were imaged from the same region. The bleaching stability was determined by exponential fits to the fluorescence intensity in selected regions of interest.

Structure (SMILES): CC[N+]1=c2cc3c(cc2C(C)CC1(C)C)=C(c1ccccc1C(=O)N(C)CCCC(=O)O)c1cc2c4c(c1C3(C)C)CCCN4CCC2.[O-][Cl+3]([O-])([O-])[O-] (mixture of isomers) [Atto 647N]
- suitability of aqueous dye solution for microinjection [1]: impossible
- background in immunostaining (unspecific binding) [2]: considerable background

Structure (SMILES): [2H]C1=C(C([2H])([2H])S(=O)(=O)O)c2cc3c(c4c2N(CCC4)C1(C([2H])([2H])[2H])C([2H])([2H])[2H])Oc1c2c4c(cc1=C3c1c(F)c(F)c(F)c(F)c1C(=O)N(C)CCC(=O)O)C(C([2H])([2H])S(=O)(=O)[O-])=C([2H])C(C([2H])([2H])[2H])(C([2H])([2H])[2H])[N+]=4CCC2 [Compound 6D]
- suitability of aqueous dye solution for microinjection [1]: suitable for microinjections
- bleaching resistance, 6 compared with 6D [3]: vary stronger between samples than between the undeuterated and deuterated substances
- depletion efficiency (STED efficiency) as function of depletion beam power [3]: No differences; also recorded: behave very similarly
- integration into biological membranes (biological membranes): do not integrate into biological membranes
- background in immunostaining (unspecific binding) [2]: very low background

Structure (SMILES): CN(CCC(=O)O)C(=O)c1c(F)c(F)c(F)c(F)c1C1=c2cc3c4c(c2Oc2c1cc1c5c2CCCN5C(C)(C)C=C1CS(=O)(=O)O)CCC[N+]=4C(C)(C)C=C3CS(=O)(=O)[O-] [Compound 6]
- suitability of aqueous dye solution for microinjection [1]: suitable for microinjections
- bleaching stability relative to Atto 647N ([4]; excitation 635 nm followed by depletion at 750 nm (STED), dye coupled to goat-anti-rabbit antibodies): comparable
- photostability, lower than that of Atto 647N ([4]; excitation with 635 nm light alone, without depletion at 750 nm): ca. 8 times
- bleaching resistance, 6 compared with 6D [3]: vary stronger between samples than between the undeuterated and deuterated substances
- depletion efficiency (STED efficiency) as function of depletion beam power [3]: No differences; also recorded: behave very similarly
- integration into biological membranes (biological membranes): do not integrate into biological membranes
- background in immunostaining (unspecific binding) [2]: low cellular and mitochondrial background; also recorded: very low background
- full width at half maximum of effective point spread function in STED images ([2]; small structures): below 40 nm

Structure (SMILES): [2H]C1=C(C([2H])([2H])S(=O)(=O)O)c2cc3c(c4c2N(CCC4)C1(C([2H])([2H])[2H])C([2H])([2H])[2H])Oc1c2c4c(cc1=C3c1c(F)c(F)c(F)c(F)c1C(=O)N(C)CCC(=O)ON1C(=O)CCC1=O)C(C([2H])([2H])S(=O)(=O)[O-])=C([2H])C(C([2H])([2H])[2H])(C([2H])([2H])[2H])[N+]=4CCC2 [Compound 9D]
- background in immunostaining (unspecific binding) [2]: low background; also recorded: very low background

Structure (SMILES): CN(CCC(=O)ON1C(=O)CCC1=O)C(=O)c1c(F)c(F)c(F)c(F)c1C1=c2cc3c4c(c2Oc2c1cc1c5c2CCCN5C(C)(C)C=C1CS(=O)(=O)O)CCC[N+]=4C(C)(C)C=C3CS(=O)(=O)[O-] [Compound 9]
- background in immunostaining (unspecific binding) [2]: low background; also recorded: very low background
